EP1334195B1, “ANALOGUES, AGONISTS, ANTAGONISTS AND VARIANTS OF THE OXIDOREDUCTASE ENZYME ACTIVITY OF THE MACROPHAGE-MIGRATION INHIBITION FACTOR (MIF) AS IMMUNOMODULATORS, MEDICAMENTS, DIAGNOSTICS AND SCREENING AGENTS IN INFLAMMATORY AND IMMUNE DISEASES” (Fraunhofer-Gesellschaft zur Förderung der angewandten …, priority 2000, dated 2007)
At least one peptide structure holds a part that was inferred or is arguable (an end, a ring closure or a residue). No end group written: not given here.

Columns and labels:
THP-1-Zellen = assay: Glucocorticoid overriding test in THP-1 monocyte line (TNF ELISA); type: cell-based, human; conditions: THP-1 cells, Dexamethason 10^-6 M, 1 µg/ml LPS, 4 h, TNF by ELISA; Figure 3
[1] = system: mikrovaskulären Endothelzellen; assay: Cell proliferation assay in microvascular endothelial cells; type: cell-based; conditions: Figure 5
p27-Kip1 = assay: Modulation of cellular p27-Kip1 levels in NIH 3T3 fibroblasts; type: cell-based; conditions: peptides 3.3 µM (Figure 4), oxidised and reduced form comparable

## FGGSSEPSALSSLHSI [Ser57/Ser60-MIF-Pep-161]
THP-1-Zellen
  Glucocorticoid-Overriding-Aktivität: kaum Aktivität
[1]
  Effekt auf das Zellwachstum: keinen Effekt
p27-Kip1
  p27-modulierende Zellaktivität: relativ schwächere Aktivität
